Tested on: M. galloprovincialis plantigrade larvae proteome
Assay: Differential proteome analysis of plantigrade larvae (label-free shotgun proteomics)
Parameters: species or system Mytilus galloprovincialis
[1] = larvae exposed at 12.5 and 50 µM
[2] = larvae exposed at 6.25 and 25 µM

O=c1c2ccccc2oc2c(O)c(O)ccc12 [Compound 7, 3,4-dihydroxy-]
abundance of protein-2 collagen-like and precollagen P (PreCols) versus control [1]: respectively above and below the control levels
number of proteins with altered abundance [1]: 24 proteins

CC1(C)CCc2cc3c(=O)c4ccccc4oc3c(O)c2O1 [Compound 10, 4-dihydro-12-hydroxy-2,2-dimethyl-2H,6H-pyrano [3,2-b]xanthone]
number of proteins with altered abundance [2]: 14 proteins
detection of two putative proximal thread matrix proteins (TMPs) (larvae exposed at 6.25 and 25 µM, detected in control): become undetected

CCCOc1ccc(N2CCCCC2)c2c(=O)c3ccccc3sc12 [Compound 17, 1-(piperidin-1-yl)-4-propoxy-9H-thioxanthen-9-one]
number of proteins with altered abundance [2]: five

From publication PMC7463931, “Structure-Antifouling Activity Relationship and Molecular Targets of Bio-Inspired(thio)xanthones” (Biomolecules, 2020)
